The list shows a part of the results, in another mix than the full data. For part of these data: At the low end of the ranking the order means little. The list shows a part of the results. For part of these data: Construct or isoform of the protein are uncertain.

Protein sequences, listed by entry. Tags and fused reporters are not part of them. Lines headed by an entry give the natural chain unless they say otherwise; changes in a name come on top.
UniProt P32519: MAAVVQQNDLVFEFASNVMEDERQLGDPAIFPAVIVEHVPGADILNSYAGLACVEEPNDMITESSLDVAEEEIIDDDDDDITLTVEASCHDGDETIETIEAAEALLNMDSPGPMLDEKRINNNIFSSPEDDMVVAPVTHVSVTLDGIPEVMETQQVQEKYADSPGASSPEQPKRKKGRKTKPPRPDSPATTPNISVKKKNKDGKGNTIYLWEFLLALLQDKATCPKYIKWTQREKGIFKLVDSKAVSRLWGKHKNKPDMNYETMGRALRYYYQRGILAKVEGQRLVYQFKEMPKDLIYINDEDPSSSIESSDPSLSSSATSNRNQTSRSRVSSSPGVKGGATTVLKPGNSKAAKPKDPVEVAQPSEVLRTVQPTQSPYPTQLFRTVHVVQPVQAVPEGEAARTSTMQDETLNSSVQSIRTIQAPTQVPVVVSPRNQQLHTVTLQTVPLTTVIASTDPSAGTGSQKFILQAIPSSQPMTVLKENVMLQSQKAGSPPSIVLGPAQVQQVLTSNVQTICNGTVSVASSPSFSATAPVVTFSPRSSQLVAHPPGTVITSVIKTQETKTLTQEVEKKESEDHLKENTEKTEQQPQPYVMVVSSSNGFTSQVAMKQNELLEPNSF
UniProt P50549: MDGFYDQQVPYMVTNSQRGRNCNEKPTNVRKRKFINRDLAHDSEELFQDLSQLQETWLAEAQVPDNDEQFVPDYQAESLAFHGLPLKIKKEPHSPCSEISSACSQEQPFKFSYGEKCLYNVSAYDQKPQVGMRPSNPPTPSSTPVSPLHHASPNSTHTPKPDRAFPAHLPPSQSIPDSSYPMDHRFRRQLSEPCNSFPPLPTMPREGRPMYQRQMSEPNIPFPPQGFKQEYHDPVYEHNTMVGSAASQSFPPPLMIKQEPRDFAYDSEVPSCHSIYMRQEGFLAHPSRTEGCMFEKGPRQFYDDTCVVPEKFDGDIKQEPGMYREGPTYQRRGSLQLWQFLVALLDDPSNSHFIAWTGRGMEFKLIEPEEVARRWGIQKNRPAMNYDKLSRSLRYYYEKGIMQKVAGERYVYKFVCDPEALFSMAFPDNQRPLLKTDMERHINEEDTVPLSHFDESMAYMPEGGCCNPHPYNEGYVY

Common to all, as to assay: DAPPL (digital affinity profiling via proximity ligation, sequencing)
What all share (conditions): 10 mM Tris-HCl pH 7.5, 50 mM NaCl, 1 mM DTT, 4% glycerol, room temperature, 30 min; GST-TFs on glutathione beads, 16-mer random dsDNA library, 0.1% …; high values mean tight binding; double strand, one strand shown; scale: fold enrichment (6-mer frequency, TF over GST control)

Assay [1] addresses T1, ERG (UniProt P11308).
T1 sequence: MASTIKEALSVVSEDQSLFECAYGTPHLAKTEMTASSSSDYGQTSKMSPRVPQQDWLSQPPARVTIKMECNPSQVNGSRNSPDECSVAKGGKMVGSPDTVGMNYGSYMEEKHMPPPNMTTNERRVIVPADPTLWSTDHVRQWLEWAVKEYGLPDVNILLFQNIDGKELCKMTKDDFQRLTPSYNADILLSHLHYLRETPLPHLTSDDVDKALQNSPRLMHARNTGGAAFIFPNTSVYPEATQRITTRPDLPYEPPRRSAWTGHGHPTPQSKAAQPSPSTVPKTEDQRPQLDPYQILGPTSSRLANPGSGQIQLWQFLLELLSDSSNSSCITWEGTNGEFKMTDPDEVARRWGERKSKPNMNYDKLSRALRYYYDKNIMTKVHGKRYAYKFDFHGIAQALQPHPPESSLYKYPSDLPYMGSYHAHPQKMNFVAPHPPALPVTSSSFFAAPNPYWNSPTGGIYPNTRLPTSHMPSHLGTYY

Assay [2] addresses ELF1 (UniProt P32519).
The target of assay [3] is T2, ELK4 (UniProt P28324-2).
T2 sequence: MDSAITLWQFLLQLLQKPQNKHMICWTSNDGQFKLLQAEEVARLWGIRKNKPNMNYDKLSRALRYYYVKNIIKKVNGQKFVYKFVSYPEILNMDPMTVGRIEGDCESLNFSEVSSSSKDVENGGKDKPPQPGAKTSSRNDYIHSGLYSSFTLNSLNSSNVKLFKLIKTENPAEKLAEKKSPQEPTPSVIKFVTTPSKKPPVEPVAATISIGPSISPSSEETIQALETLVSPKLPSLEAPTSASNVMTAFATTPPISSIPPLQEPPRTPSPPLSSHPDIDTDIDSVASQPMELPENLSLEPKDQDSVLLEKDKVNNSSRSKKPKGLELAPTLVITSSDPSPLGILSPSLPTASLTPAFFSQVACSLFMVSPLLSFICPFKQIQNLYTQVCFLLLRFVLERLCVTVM

Assay [4] addresses T3, ETV4 (UniProt P43268).
T3 sequence: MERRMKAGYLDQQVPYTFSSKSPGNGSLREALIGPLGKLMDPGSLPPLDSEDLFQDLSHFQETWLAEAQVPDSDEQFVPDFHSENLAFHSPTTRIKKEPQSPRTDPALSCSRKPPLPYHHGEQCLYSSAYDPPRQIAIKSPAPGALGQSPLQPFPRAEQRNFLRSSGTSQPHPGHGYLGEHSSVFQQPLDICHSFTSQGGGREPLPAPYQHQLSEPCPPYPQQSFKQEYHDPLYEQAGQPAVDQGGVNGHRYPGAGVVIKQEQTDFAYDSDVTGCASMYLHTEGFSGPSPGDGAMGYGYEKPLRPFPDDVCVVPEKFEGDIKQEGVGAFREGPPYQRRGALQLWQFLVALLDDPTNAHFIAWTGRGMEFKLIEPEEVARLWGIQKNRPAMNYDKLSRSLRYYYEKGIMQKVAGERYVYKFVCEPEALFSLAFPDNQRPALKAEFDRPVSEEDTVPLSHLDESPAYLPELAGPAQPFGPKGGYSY

Assay [5] concerns the target ETV1 (UniProt P50549).
The target of assay [6] is T4, ERF (UniProt P50548).
T4 sequence: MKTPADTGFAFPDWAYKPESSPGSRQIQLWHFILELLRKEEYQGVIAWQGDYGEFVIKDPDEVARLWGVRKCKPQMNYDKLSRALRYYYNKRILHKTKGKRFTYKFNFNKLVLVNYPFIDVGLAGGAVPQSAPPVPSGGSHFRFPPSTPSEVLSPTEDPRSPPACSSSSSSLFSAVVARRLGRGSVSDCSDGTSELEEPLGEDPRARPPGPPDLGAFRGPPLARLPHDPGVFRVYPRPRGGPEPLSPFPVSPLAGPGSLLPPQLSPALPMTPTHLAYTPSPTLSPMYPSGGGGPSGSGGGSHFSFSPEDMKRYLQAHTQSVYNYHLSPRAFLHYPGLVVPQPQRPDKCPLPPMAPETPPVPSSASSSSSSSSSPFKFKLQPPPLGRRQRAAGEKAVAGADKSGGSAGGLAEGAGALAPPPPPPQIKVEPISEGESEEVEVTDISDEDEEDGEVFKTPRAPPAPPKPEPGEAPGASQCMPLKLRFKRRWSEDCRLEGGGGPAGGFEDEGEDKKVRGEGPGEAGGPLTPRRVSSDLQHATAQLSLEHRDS

For the sequence GGTAGA, the binding signal is 0.691 in assay [1]; 0.671 in assay [2]; 0.707 in assay [3]; 0.629 in assay [4]; 0.619 in assay [5]; 0.737 in assay [6].

For the sequence CTAGTC, the binding signal amounted to 0.819 in assay [1]; 0.756 in assay [2]; 0.745 in assay [3]; 0.778 in assay [4]; 0.831 in assay [5]; 0.821 in assay [6].

As to GTGATC, the binding signal in assay [1] came to 0.78; in assay [2] it was 0.745; in assay [3] it was 0.814; in assay [4] it was 0.763; in assay [5], 0.837; in assay [6], 0.802.

In the case of GAGGGT, the binding signal in assay [1] was determined as 0.542; in assay [2], 0.558; in assay [3], 0.632; in assay [4] it was 0.525; in assay [5], 0.557; in assay [6], 0.559.

As for TGTGTC, the binding signal turned out to be 0.834 in assay [1]; 0.755 in assay [2]; 0.807 in assay [3]; 0.755 in assay [4]; 0.767 in assay [5]; 0.861 in assay [6].

Turning to GTGTGA, the binding signal in assay [1] was 0.535; in assay [2], 0.579; in assay [3], 0.699; in assay [4] it was 0.613; in assay [5] it was 0.674; in assay [6], 0.493.

Regarding CGGCGA, the binding signal in assay [1] came to 0.732; in assay [2] it was 0.744; in assay [3], 0.702; in assay [4] it was 0.731; in assay [5], 0.753; in assay [6], 0.724.

Regarding GAGGCT, the binding signal in assay [1] was 0.608; in assay [2], 0.585; in assay [3] it was 0.675; in assay [4], 0.597; in assay [5] it was 0.657; in assay [6], 0.66.

On to CGGAGG, for which the binding signal in assay [1] was determined as 0.305; in assay [2], 0.275; in assay [3], 0.261; in assay [4] it was 0.287; in assay [5], 0.296; in assay [6], 0.268.

For GATTGT, the binding signal amounted to 0.834 in assay [1]; 0.808 in assay [2]; 0.864 in assay [3]; 0.841 in assay [4]; 0.819 in assay [5]; 0.932 in assay [6].

Turning to CACGTG, the binding signal is 0.612 in assay [1]; 0.615 in assay [2]; 0.672 in assay [3]; 0.625 in assay [4]; 0.621 in assay [5]; 0.662 in assay [6].

On to CAGTGC, for which the binding signal in assay [1] worked out at 0.732; in assay [2] it was 0.8; in assay [3], 0.751; in assay [4], 0.839; in assay [5] it was 0.729; in assay [6] it was 0.798.

As for GCGCCA, the binding signal in assay [1] was found to be 0.781; in assay [2], 0.858; in assay [3], 0.766; in assay [4], 0.82; in assay [5], 0.779; in assay [6] it was 0.819.

As to TAGTCG, the binding signal in assay [1] turned out to be 0.444; in assay [2] it was 0.462; in assay [3], 0.483; in assay [4] it was 0.459; in assay [5] it was 0.46; in assay [6], 0.467.

With GCAGGG, the binding signal in assay [1] was found to be 0.627; in assay [2] it was 0.608; in assay [3], 0.601; in assay [4], 0.684; in assay [5], 0.642; in assay [6], 0.676.

As for CGCCAG, the binding signal was 0.654 in assay [1]; 0.661 in assay [2]; 0.709 in assay [3]; 0.665 in assay [4]; 0.646 in assay [5]; 0.649 in assay [6].

Take GACTGG: the binding signal in assay [1] was 0.622; in assay [2], 0.669; in assay [3] it was 0.73; in assay [4], 0.594; in assay [5], 0.677; in assay [6], 0.682.

With GGATAG, the binding signal is 0.715 in assay [1]; 0.729 in assay [2]; 0.788 in assay [3]; 0.735 in assay [4]; 0.689 in assay [5]; 0.739 in assay [6].

Consider CGTAGG, for which the binding signal is 0.672 in assay [1]; 0.651 in assay [2]; 0.615 in assay [3]; 0.619 in assay [4]; 0.625 in assay [5]; 0.631 in assay [6].

Turning to GGTGGG, the binding signal in assay [1] worked out at 0.694; in assay [2] it was 0.679; in assay [3], 0.566; in assay [4], 0.631; in assay [5], 0.603; in assay [6] it was 0.736.

On to TGGGTC, for which the binding signal in assay [1] was found to be 0.646; in assay [2], 0.699; in assay [3] it was 0.617; in assay [4], 0.668; in assay [5] it was 0.601; in assay [6] it was 0.684.

Take ACAACG: the binding signal is 0.939 in assay [1]; 0.962 in assay [2]; 0.964 in assay [3]; 1 in assay [4]; 0.952 in assay [5]; 0.997 in assay [6].

With AGGGCC, the binding signal was 0.927 in assay [1]; 0.94 in assay [2]; 1.1 in assay [3]; 0.893 in assay [4]; 0.859 in assay [5]; 0.923 in assay [6].

The record behind these values is PMC7862700.
